Measured values: US8129527B2, “Analogs of dehydrophenylahistins and their therapeutic use” (Nereus Pharmacuticals, Inc., priority 2006, dated 2012)
Where two headings read alike, the source gives them in different places.

How the values were obtained:
[1] = test system: MCF7 human breast carcinoma cells; assay: Mitotic progression (mitotic index); format: cell-based
[2] = test system: P388 murine leukemia cells; assay: Cytotoxic effect in P388 cells; format: cell-based; settings: Mus musculus, P388, read-out: IC50 (nM) P-388; Table 2
From the text: The cytotoxic effects of phenylahistin, dehydrophenylahistin and various derivatives of dehydrophenylahistin were examined in P388 murine leukemia cells, HT-29 human colon cells, and PC-3 prostatic adenocarcinoma cells.

COc1cc2c(c(OC)c1OC)-c1ccc(OC)c(=O)cc1[C@@H](NC(C)=O)CC2 [Colchicine]
IC50 ([1]; MCF7, 20 hours, read-out: mitotic block IC50): 23.8 ± 3.1 nM
IC50 ([1]; MCF7 cells, 20 hours, read-out: Mitotic block Ave. IC50 ± sd): 23.8 ± 3.1 nM
IC50 [2]: 208 ± 68 nM
